## Screening data, single-dose tests

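Assay of Toxoplasma gondii numbers, read through their beta-galactosidase reporter with a colour substrate. Tested at 50 µM. The record gives no direction; the compounds picked for IC50 retests had high values, so higher reads as fewer parasites. Size under these conditions: about 18,000 compounds, about 170 of them at 50% or above in at least one test.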

Values are the deposited “Percent Effect”, in %. How 0% and 100% were set is not recorded. Most values in the screen are low, and negative values occur. Compounds were drawn at random from those tested, without regard to their results.

| Compound | percent effect |
|---|---|
| `CCSCCNC(=O)c1cc(CC)[nH]c(=O)c1` | -1.146 |
| `CC(C)N(C)S(=O)(=O)N1CCc2sccc2C1C` (stereo unspecified) | -3.557 |
| `COc1ncccc1C(=O)NCCN1CCCC(C)C1` (stereo unspecified) | 0.7037 |
| `CN(CCC#N)C(CCO)c1ccccc1` (stereo unspecified) | 25.8 |
| `CCCN1CCN(C2CCNCC2)CC1` | -21.74 |
| `CCN(CC)C(=O)[C@@H]1C[C@@H](N)CN1Cc1[nH]cnc1C` | -19.16 |
| `Cn1cc(C(=O)NCc2ccccc2F)cn1` | 3.268 |
| `CSC(C)C(=O)NCc1ccccn1` (stereo unspecified) | -4.114 |
| `CC(N)c1cccc(OCc2ccccn2)c1` (stereo unspecified) | -2.12 |
| `O=C1NCCOc2ccc(Br)cc21` | -18.86 |
| `CC(NC(=O)CCCn1cncn1)c1cnn(C)c1` (stereo unspecified) | 3.24 |
| `O=C(CN1CCCCC1)N1CCCCC1` | 1.789 |
| `CN(C)[C@@H]1CN(C(=O)c2ccccc2Cl)C[C@H]1CO` | 36.44 |
| `CN(C)C(=O)c1ccc(Cl)c(S(=O)(=O)N2CCCC2)c1` | -39.31 |
| `CCc1cc(C(=O)NCC(C)C)no1` | -3.733 |
| `COC[C@]1(O)CCN(Cc2ncc[nH]2)CC1(C)C` | -15.04 |
| `CC(C)C(=O)NCc1ccc(-n2ccnc2)cc1` | -6.419 |
| `Cc1cc(C2CCCN2C(=O)C2CCOCC2)on1` (stereo unspecified) | -32.94 |
| `CCN(C)C(=O)CCOc1ccccc1C(N)=O` | 8.775 |
| `Cc1cccc(N(CCC(N)=O)C(=O)C2CCC2)c1` | -27.32 |
| `OC1CCN(C2CCNCC2)CC1` | -0.2333 |
| `CN(CCc1cnn(C)c1)C(=O)CN1CCOC1=O` | -2.008 |
| `Cc1ncn(Cc2cc(=O)n3ccsc3n2)c(=O)c1C` | -1.376 |
| `COc1cccc(NC(=O)NCCN(C)C(C)C)c1` | -3.291 |
| `COc1ccccc1-c1cc(CO)[nH]n1` | -13.82 |
| `CC(Oc1cccc(Br)c1)C(=O)NN1CCOCC1` (stereo unspecified) | -3.748 |
| `Cn1cc(CNC(=O)C2CSc3ccccc3O2)cn1` (stereo unspecified) | 2.819 |
| `COc1ccccc1S(=O)(=O)Nc1cccnc1O` | 6.907 |
| `CC(C)=CCO[C@@H]1COCC[C@H]1NC(=O)CN(C)C` | 5.674 |
| `COCC(C)(CCO)NCc1c(C)noc1C` (stereo unspecified) | -23.44 |
| `Cc1ccc(C(=O)Nc2ccncc2F)cn1` | -0.08099 |
| `COc1cc(CNCC(C)O)cc(Cl)c1OCC(N)=O` (stereo unspecified) | -10.89 |
| `Brc1cncc(NCCn2ccnc2)c1` | -10.28 |
| `OCC(O)CNc1ncc(-c2ccccc2)s1` (stereo unspecified) | -3.318 |
| `CSCC1CCCN1C(=O)c1ccc(CN)cc1` (stereo unspecified) | 2.425 |
| `Cc1ccc(CCNC(=O)CC2C=CS(=O)(=O)C2)o1` (stereo unspecified) | -8.173 |
| `CCOC(=O)CC(C)NC(=O)Nc1cccnc1OC` (stereo unspecified) | -4.61 |
| `NC1CC(c2cc(NCCCn3ccnn3)ncn2)C1` (stereo unspecified) | 15.6 |
| `CC(C1CCN(C)CC1)N(C)C(=O)C1CCC1` (stereo unspecified) | -5.682 |
| `CC(C)n1cnnc1CNC(=O)Nc1ccccc1` | -8.393 |
| `CCC(O)(CC)C(C)(C)CN` | 0.7009 |
| `NC(=O)C1CCCN(Cc2ccc(F)cc2Cl)C1` (stereo unspecified) | -7.221 |
| `CN(C)CCOc1ccccc1CN` | -9.833 |
| `O=C1CN(Cc2ccc(F)c3cccnc23)CCN1` | 5.381 |
| `O=C(Cc1ccccc1F)Nc1ccon1` | -12.12 |
| `CC1Cc2ccccc2N1S(C)(=O)=O` (stereo unspecified) | -12.52 |
| `Cc1noc(C)c1CN1CCCC(O)C1` (stereo unspecified) | -10.07 |
| `O=C(c1cccc(=O)[nH]1)N1CC(N2CCCCC2)C1` | 5.583 |
| `CC(C)(CNC(=O)c1c[nH]nn1)c1cccc(F)c1` | -9.623 |
| `CCc1noc(CC2CCNCC2)n1` | 10.45 |
| `CCCN1CCC(NC(=O)C2CCC2)CC1` | 2.582 |
| `CCOC(=O)c1cccc(NC(N)=O)c1` | 0.4798 |
| `Cc1ccc(F)cc1C(=O)OCCCNC(N)=O` | 8.193 |
| `N#CC1COCCN1C(=O)c1ccc(Cl)cn1` (stereo unspecified) | 5.247 |
| `O=C(CN1CCOC(c2ccccc2)C1)NC1CC1` (stereo unspecified) | 1.091 |
| `CC1(C(=O)NCCN2CCCCC2)CCCCC(=O)N1` (stereo unspecified) | -13.98 |
| `CCn1cncc1CN1C[C@H](O)[C@@H](N2CCCC2)C1` | -0.2923 |
| `CS(=O)(=O)c1ccc(CN2CCN3CCCC3C2)cc1` (stereo unspecified) | -15.85 |
| `CCN1CCN(C(C)c2nc(C)no2)CC1` (stereo unspecified) | -0.6462 |
| `NCCC(=O)N1CCCC1Cc1cccc(F)c1` (stereo unspecified) | -2.968 |
| `O=C(c1cnsn1)N1CCCSc2ccc(F)cc21` | -6.956 |
| `Cc1ccc(F)c(OCC(=O)N[C@@H](C)C(N)=O)c1` | 3.636 |
| `NCc1nnc2n1CC(C(F)(F)F)CC2` (stereo unspecified) | -1.965 |

4 of the entries, repeated:

| Compound | percent effect |
|---|---|
| `Cc1cc(C2CCCN2C(=O)C2CCOCC2)on1` (stereo unspecified) | -32.94 |
| `CN(C)C(=O)c1ccc(Cl)c(S(=O)(=O)N2CCCC2)c1` | -39.31 |
| `CCn1cncc1CN1C[C@H](O)[C@@H](N2CCCC2)C1` | -0.2923 |
| `CC(C)N(C)S(=O)(=O)N1CCc2sccc2C1C` (stereo unspecified) | -3.557 |

Measurements from “University of Dundee, Small-Polar-MMV Screening Library” (2021), ChEMBL document CHEMBL3988442.